From paper PMC12853880 come the findings set out here.

Chains of the proteins cited; added tags and fusions are not shown.
UniProt O24456: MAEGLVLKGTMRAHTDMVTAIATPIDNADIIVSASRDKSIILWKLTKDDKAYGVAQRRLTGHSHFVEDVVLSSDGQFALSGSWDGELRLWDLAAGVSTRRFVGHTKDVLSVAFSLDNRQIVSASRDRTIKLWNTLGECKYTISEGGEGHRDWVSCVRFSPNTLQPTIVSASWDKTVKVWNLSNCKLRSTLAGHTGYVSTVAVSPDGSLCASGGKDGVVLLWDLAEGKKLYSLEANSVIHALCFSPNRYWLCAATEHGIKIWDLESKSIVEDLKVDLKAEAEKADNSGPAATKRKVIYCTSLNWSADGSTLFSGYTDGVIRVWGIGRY

B1: TSN1 fused to the C-terminal part of YFP (YFPc) (protein, UniProt Q8VZG7 1-991)
chain: MATGAENQWLKGRVKAVTSGDCLVITALSHNRAGPPPEKTITFSSLMAPKMARRGGIDEPFAWESKEFLRKLCIGKEVAFKVDYKVEAIAGREFGSVFLGNENLAKLVVKTGWAKVREPGQQNQDKVSPYIKELLQLEELAKQEGYGRWSKVPGAAEASIRNLPPSAIGDSAGFDAMGLLAANKGKPMEGIVEQVRDGSTIRVYLLPEFQFVQVFVAGVQAPSMGRRTTNGSVVETVPDEPNGDVSAESRGPLTTAQRLAASAASSVEVSSDPFATEAKYFTEHRVLSRDVRIVLEGVDKFNNLIGSVHYSDGETVKDLGLELVENGLAKFVEWSANMMEEEAKKKLKAAELQCKKDKVKMWANYVPPATNSKAIHDQNFTGKVVEVVSGDCLIVADDAVPFGSPAAERRVCLSSIRSPKMGNPRREEKPAPYAREAREFLRQRLIGKQVIVQMEYSRKVTQGDGPTTSGAADRFMDFGSVFLPSAAKADSDEVTAPPAAAIAGSQPVGVNIAELVLVRGFGNVVRHRDFEERSNHYDALLAAEARALAGKKGIHSAKESPAMHITDLTVSAAKKAKDFLPSLQRIRRIPAVVEYVLSGHRFKLYIPKITCSIAFSFSGVRCPGRGEPYSEEAISVMRRRIMQRDVEIEVETVDRTGTFLGSMWESRTNVATVLLEAGLAKMQTSFGADRIAEAHLLEQAERSAKNQKLKIWENYVEGEEVSNGNTNTVETRQKETLKVVVTEVLGGGRFYVQSAGDQKIASIQNQLASLSIKDAPIIGSFNPKRGDIVLAQFSLDNSWNRAMIVTAPRAAVQSPDEKFEVFYIDYGNQETVPYSAIRPIDPSVSAAPGLAQLCRLAYIKVPSLEDDFGPEAGEYLHTVTLGSGKEFKAVIEERDTSGGKVKGQGTGTEFVVTLIAVDDEISVNAAMLQEGIARMEKRQKWGHKGKQAALDALEKFQEEARKSRIGIWQYGDIESDDEDTGPARKPAGGRR
B2: NUDT7-YFPc (NUDIX HYDROLASE 7 fused to the C-terminal part of YFP) (enzyme, UniProt Q9SU14 1-282)
chain: MGTRAQQIPLLEGETDNYDGVTVTMVEPMDSEVFTESLRASLSHWREEGKKGIWIKLPLGLANLVEAAVSEGFRYHHAEPEYLMLVSWISETPDTIPANASHVVGAGALVINKNTKEVLVVQERSGFFKDKNVWKLPTGVINEGEDIWTGVAREVEEETGIIADFVEVLAFRQSHKAILKKKTDMFFLCVLSPRSYDITEQKSEILQAKWMPIQEYVDQPWNKKNEMFKFMANICQKKCEEEYLGFAIVPTTTSSGKESFIYCNADHAKRLKVSRDQASASL
B3: YFPc-GPA1 (GUANINE NUCLEOTIDE-BINDING PROTEIN ALPHA-1 SUBUNIT fused to the C-terminal part of YFP) (protein, UniProt P18064 1-383)
chain: MGLLCSRSRHHTEDTDENTQAAEIERRIEQEAKAEKHIRKLLLLGAGESGKSTIFKQIKLLFQTGFDEGELKSYVPVIHANVYQTIKLLHDGTKEFAQNETDSAKYMLSSESIAIGEKLSEIGGRLDYPRLTKDIAEGIETLWKDPAIQETCARGNELQVPDCTKYLMENLKRLSDINYIPTKEDVLYARVRTTGVVEIQFSPVGENKKSGEVYRLFDVGGQRNERRKWIHLFEGVTAVIFCAAISEYDQTLFEDEQKNRMMETKELFDWVLKQPCFEKTSFMLFLNKFDIFEKKVLDVPLNVCEWFRDYQPVSSGKQEIEHAYEFVKKKFEELYYQNTAPDRVDRVFKIYRTTALDQKLVKKTFKLVDETLRRRNLLEAGLL

These are yes or no findings as the source states them, for the method shown. In cells and extracts the contact can be indirect. Some entries that bind do so weakly or less than the wild type. Sequences can lack the tags named with a protein.

In the experiment the target is YFPn-RACK1A (Arabidopsis thaliana) (UniProt O24456). The experiment in a line: split reporter; ratiometric BiFC (rBiFC, 2in1 vectors) in transiently transformed N. benthamiana leaf epidermal cells; YFP to RFP ratio in nuclei and cytosol, normalised to the positive control.
On to B1, for which the binding result was “binds”.

Take B2: the binding result is reported as “binds”.

As for B3, the binding result is “no binding”.
